Source: the supplement of paper PMC12819154, “High-throughput peptide-centric local stability assay extends protein–ligand identification to membrane proteins, tissues and bacteria” (Nature Structural & Molecular Biology, 2025)
The list shows a part of the results. Small differences around the control level are noise.

Chains of the proteins cited; added tags and fusions are not shown. Lines headed by an entry give the natural chain unless they say otherwise; changes in a name come on top.
UniProt Q9Z0R9: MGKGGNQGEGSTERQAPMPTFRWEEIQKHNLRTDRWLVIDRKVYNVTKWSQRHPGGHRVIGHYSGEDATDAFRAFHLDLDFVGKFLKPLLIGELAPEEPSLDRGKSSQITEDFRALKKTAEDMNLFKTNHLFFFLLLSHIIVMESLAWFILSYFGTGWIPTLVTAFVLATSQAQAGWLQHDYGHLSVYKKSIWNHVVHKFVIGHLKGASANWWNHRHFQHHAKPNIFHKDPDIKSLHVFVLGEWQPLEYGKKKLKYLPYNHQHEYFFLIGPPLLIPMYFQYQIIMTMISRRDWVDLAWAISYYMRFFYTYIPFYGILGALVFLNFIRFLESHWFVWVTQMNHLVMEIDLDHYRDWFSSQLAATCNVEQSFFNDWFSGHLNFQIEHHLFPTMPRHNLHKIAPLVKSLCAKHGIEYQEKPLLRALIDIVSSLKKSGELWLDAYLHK
UniProt Q9Z2Y8: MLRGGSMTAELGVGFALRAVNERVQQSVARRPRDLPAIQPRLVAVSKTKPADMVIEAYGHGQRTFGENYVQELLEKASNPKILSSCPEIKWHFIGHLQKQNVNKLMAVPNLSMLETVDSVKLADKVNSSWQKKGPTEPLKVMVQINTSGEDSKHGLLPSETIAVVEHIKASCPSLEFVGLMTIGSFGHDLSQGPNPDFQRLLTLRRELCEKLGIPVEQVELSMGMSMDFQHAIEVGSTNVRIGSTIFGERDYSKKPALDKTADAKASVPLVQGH
UniProt Q9Z188, whole entry: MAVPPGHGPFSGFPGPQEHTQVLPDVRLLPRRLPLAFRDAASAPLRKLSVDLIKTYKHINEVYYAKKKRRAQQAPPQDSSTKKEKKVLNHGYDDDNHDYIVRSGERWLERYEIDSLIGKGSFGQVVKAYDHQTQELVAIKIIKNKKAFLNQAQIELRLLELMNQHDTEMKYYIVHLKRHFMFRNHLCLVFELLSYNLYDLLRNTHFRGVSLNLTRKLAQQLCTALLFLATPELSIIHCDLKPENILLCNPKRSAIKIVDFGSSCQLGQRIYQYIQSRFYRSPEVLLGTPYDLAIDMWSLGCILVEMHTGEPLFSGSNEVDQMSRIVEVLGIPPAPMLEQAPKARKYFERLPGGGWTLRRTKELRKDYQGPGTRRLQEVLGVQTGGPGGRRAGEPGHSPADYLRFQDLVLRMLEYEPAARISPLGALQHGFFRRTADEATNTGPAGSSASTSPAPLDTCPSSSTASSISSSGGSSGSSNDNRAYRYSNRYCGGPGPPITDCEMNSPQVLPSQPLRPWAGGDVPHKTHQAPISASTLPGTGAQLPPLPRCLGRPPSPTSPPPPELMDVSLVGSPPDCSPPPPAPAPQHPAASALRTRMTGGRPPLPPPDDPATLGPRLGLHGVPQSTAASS
UniProt Q9Z0F4: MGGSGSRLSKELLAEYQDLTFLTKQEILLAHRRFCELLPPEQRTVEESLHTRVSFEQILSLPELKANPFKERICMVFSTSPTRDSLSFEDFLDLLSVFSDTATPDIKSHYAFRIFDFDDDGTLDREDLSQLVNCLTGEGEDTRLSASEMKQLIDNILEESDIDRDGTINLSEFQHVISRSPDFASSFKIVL
UniProt Q9Z2L6: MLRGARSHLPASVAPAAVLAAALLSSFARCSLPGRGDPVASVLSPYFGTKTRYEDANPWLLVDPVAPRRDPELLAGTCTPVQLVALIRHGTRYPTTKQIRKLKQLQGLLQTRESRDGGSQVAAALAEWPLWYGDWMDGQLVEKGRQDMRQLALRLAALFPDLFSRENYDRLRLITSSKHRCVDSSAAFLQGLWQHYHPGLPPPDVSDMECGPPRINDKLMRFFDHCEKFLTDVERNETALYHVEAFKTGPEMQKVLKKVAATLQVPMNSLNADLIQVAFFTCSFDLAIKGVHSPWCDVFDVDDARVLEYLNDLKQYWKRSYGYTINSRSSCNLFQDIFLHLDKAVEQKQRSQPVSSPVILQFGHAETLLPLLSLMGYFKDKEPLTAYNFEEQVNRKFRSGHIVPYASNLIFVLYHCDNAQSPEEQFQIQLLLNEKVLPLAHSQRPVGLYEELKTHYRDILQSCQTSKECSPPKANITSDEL
UniProt Q9Z1Y4, whole entry: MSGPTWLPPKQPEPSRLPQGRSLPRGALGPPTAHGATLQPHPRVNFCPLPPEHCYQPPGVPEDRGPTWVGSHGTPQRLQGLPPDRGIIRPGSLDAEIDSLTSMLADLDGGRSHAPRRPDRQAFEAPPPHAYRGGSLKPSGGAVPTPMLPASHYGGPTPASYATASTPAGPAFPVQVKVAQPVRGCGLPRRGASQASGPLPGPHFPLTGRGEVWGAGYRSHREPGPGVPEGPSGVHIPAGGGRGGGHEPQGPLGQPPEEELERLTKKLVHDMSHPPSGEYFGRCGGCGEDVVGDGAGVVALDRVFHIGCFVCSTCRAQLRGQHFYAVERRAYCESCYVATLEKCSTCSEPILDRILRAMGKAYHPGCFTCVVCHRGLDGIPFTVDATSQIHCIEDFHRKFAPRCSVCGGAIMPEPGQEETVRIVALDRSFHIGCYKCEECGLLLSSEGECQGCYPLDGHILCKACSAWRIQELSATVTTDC
UniProt Q9Z2X2: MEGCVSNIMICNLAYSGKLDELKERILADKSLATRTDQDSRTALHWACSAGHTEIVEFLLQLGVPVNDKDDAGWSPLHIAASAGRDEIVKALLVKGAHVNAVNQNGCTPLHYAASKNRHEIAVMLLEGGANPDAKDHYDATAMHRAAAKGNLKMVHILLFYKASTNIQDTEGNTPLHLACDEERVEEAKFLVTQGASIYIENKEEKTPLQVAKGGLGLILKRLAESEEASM
UniProt Q9Z0G0: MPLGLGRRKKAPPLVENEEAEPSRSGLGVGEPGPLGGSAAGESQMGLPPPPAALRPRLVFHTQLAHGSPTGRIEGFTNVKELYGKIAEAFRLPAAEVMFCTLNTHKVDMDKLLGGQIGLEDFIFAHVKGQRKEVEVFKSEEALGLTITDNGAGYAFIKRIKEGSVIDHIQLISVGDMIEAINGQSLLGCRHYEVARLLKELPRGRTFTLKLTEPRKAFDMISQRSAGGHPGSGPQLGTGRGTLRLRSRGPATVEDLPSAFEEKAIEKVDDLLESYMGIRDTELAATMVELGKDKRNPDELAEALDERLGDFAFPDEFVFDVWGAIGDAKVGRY
UniProt Q9Z2B5: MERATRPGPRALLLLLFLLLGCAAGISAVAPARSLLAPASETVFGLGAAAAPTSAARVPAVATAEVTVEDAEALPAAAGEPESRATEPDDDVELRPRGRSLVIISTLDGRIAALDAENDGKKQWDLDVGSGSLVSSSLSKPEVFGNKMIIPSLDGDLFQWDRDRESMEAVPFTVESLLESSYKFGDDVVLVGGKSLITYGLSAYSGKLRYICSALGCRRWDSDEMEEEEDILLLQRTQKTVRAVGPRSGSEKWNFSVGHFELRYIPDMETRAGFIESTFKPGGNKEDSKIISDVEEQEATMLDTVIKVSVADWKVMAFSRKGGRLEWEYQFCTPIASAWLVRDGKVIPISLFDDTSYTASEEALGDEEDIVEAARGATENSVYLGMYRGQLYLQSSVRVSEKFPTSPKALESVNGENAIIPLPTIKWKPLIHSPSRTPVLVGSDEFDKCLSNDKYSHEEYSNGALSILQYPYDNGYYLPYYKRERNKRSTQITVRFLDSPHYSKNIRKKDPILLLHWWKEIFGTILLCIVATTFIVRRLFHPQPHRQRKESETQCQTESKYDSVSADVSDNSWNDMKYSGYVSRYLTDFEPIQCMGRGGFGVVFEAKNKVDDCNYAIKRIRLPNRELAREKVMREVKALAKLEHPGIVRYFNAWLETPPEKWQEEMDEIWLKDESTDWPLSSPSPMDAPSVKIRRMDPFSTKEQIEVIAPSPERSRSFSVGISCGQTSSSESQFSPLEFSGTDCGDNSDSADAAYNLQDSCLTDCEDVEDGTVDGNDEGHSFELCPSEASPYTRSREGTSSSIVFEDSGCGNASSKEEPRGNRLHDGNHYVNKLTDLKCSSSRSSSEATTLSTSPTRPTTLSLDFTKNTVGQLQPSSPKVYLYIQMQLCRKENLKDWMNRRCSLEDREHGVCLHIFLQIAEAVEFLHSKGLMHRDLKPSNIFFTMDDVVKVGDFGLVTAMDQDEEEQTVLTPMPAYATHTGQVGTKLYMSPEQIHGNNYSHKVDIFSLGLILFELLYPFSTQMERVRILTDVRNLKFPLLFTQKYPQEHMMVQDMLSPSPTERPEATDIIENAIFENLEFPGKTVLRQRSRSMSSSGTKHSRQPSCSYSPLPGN
UniProt Q9Z2D1, whole entry: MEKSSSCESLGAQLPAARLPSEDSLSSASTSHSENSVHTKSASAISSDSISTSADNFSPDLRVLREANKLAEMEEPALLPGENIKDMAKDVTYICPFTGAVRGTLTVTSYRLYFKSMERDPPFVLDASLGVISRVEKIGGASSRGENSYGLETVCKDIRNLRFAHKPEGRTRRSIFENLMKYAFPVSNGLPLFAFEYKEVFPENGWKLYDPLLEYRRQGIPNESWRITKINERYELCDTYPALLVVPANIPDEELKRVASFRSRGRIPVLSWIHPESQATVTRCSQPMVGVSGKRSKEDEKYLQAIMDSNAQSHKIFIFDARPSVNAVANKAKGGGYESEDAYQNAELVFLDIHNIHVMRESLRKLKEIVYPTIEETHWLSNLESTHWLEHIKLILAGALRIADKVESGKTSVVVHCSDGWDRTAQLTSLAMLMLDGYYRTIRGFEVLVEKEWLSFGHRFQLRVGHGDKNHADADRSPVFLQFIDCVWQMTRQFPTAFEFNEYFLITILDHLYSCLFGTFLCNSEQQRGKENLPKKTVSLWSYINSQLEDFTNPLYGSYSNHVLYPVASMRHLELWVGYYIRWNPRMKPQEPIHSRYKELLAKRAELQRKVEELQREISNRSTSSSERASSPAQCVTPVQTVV
UniProt Q9Z172, whole entry: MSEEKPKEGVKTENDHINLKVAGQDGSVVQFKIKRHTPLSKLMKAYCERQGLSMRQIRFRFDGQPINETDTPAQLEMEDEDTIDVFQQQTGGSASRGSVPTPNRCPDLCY
UniProt Q9Z1R4: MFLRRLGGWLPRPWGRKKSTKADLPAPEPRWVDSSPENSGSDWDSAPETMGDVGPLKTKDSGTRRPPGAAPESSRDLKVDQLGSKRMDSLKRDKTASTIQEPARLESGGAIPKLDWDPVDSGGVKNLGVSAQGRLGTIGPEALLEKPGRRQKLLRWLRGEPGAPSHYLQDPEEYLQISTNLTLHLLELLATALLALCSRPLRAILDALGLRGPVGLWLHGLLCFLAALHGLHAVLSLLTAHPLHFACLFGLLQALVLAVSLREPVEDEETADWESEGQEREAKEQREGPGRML
UniProt Q9Z0U0: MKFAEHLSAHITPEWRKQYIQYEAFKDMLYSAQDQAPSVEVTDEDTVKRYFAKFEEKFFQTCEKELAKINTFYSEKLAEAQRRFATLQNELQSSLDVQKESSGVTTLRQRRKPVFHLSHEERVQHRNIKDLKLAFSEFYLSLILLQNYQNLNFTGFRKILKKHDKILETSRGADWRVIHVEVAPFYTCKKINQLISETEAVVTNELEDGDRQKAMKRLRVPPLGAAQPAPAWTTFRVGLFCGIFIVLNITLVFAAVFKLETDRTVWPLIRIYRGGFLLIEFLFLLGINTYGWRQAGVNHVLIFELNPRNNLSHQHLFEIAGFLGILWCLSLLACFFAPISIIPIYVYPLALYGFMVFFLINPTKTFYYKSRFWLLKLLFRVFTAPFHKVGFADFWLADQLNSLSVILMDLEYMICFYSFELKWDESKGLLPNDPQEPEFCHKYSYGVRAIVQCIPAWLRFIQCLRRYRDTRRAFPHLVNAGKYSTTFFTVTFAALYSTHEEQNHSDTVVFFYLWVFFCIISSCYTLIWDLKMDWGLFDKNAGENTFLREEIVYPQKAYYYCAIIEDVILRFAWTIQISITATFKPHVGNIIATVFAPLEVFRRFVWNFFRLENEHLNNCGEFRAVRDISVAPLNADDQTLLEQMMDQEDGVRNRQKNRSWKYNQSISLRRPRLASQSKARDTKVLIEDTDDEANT
UniProt Q9Z2U0: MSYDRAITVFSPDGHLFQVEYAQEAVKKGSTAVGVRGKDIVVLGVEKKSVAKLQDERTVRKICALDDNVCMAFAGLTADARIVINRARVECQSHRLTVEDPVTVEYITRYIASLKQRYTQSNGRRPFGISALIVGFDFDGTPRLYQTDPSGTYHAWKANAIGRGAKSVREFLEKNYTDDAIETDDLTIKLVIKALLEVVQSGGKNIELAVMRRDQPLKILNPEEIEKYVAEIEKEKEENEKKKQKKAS
UniProt Q9Z1D1, whole entry: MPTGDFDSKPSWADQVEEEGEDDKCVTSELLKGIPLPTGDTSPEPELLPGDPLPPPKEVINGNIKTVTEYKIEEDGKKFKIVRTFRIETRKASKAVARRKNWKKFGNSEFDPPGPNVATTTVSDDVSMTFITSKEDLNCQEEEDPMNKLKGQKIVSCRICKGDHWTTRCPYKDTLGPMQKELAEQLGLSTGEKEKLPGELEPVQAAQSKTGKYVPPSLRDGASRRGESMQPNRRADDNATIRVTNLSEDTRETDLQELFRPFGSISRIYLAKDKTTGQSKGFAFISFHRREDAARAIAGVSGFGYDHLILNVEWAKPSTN

What follows are targets tested with CN[C@@H]1C[C@H]2O[C@@](C)([C@@H]1OC)n1c3ccccc3c3c4c(c5c6ccccc6n2c5c31)C(=O)NC4 [staurosporine] (assay: log2 fold change of tryptic peptide abundance, ligand vs vehicle (limited proteolysis) (log2 ratio); higher = more trypsin-susceptible (destabilized)). Settings: ligand concentration: 20 uM; sample: mouse liver crude lysate; replicate design: treated separately.

| Target | log2 fold change |
| --- | --- |
| UniProt Q9WVH3 (peptide sequence: KKPSVLPAPPEGATPR, peptide start residue: 214) | -0.233 |
| UniProt Q9WVM3 (peptide sequence: EQKYEDGIALLR, peptide start residue: 455) | 0.229 |
| UniProt Q9Z0R9 (peptide sequence: ALIDIVSSLKK, peptide start residue: 422) | 0.419 |
| UniProt Q9Z0R4 (peptide sequence: QIGWFPANYVK, peptide start residue: 1117) | 0.136 |
| UniProt Q9WVJ9 (peptide sequence: CINHYGGYLCLPR, peptide start residue: 71) | 0.00553 |
| UniProt Q9Z2Y8 (peptide sequence: IGSTIFGER, peptide start residue: 242) | -0.291 |
| UniProt Q9Z188 (peptide sequence: ISPLGALQHGFFR, peptide start residue: 420) | -0.607 |
| UniProt Q9Z129 (peptide sequence: LIYVTPEK, peptide start residue: 186) | -0.165 |
| UniProt Q9Z2F2 (peptide sequence: SLAYNIIVLTHR, peptide start residue: 118) | -0.131 |
| UniProt Q9Z0F4 (peptide sequence: TVEESLHTR, peptide start residue: 44) | -0.376 |
| UniProt Q9Z0P7 (peptide sequence: GLEINSKPVLPPINSQR, peptide start residue: 315) | 0.102 |
| UniProt Q9Z2L6 (peptide sequence: FFDHCEK, peptide start residue: 222) | -0.329 |
| UniProt Q9WVB0 (peptide sequence: FDPEIPQTLR, peptide start residue: 86) | 0.0584 |
| UniProt Q9Z1D7 (peptide sequence: AFIQMSELTEH, peptide start residue: 491) | -0.0587 |
| UniProt Q9Z2S7 (peptide sequence: TLASPEQLEK, peptide start residue: 99) | 0.0615 |
| UniProt Q9Z1Y4 (peptide sequence: GALGPPTAHGATLQPHPR, peptide start residue: 26) | -0.109 |
| UniProt Q9Z1B8 (peptide sequence: GLDWDAGHLSNR, peptide start residue: 173) | 0.111 |

| Target | log2 fold change |
| --- | --- |
| UniProt Q9Z2K1 (peptide sequence: ADLEMQIENLR, peptide start residue: 231) | 0.0735 |
| UniProt Q9Z2X2 (peptide sequence: DHYDATAMHR, peptide start residue: 136) | 0.222 |
| UniProt Q9Z0G0 (peptide sequence: DTELAATMVELGKDKR, peptide start residue: 280) | 0.187 |
| UniProt Q9Z0X4 (peptide sequence: EQLMGHSEWDHK, peptide start residue: 317) | -0.0834 |
| UniProt Q9Z2B5 (peptide sequence: LHDGNHYVNK, peptide start residue: 824) | -0.282 |
| UniProt Q9Z2D1 (peptide sequence: LPSEDSLSSASTSHSENSVHTK, peptide start residue: 19) | 0.464 |
| UniProt Q9Z1Z0 (peptide sequence: DSLIENLK, peptide start residue: 757) | -0.512 |
| UniProt Q9Z172 (peptide sequence: SEEKPKEGVK, peptide start residue: 2) | -0.156 |
| UniProt Q9Z1R4 (peptide sequence: LDWDPVDSGGVK, peptide start residue: 114) | -0.0824 |
| UniProt Q9Z0U0 (peptide sequence: YNQSISLR, peptide start residue: 662) | 0.09 |
| UniProt Q9Z2U0 (peptide sequence: ILNPEEIEK, peptide start residue: 219) | 0.185 |
| UniProt Q9Z1X4 (peptide sequence: HAGKKPLHGGQQK, peptide start residue: 731) | -0.803 |
| UniProt Q9Z103 (peptide sequence: KILSDIGLEYCKEHIEDFK, peptide start residue: 21) | -0.623 |
| UniProt Q9Z2Y3 (peptide sequence: VTELECVSSQANAVHSHK, peptide start residue: 241) | 0.806 |
| UniProt Q9Z2C5 (peptide sequence: YMELLALRDDYIKR, peptide start residue: 557) | 0.317 |
| UniProt Q9Z329 (peptide sequence: HLATGNYLAAELNPDYR, peptide start residue: 307) | 0.292 |
| UniProt Q9Z1D1 (peptide sequence: EVINGNIK, peptide start residue: 58) | -0.217 |

A different layout for part of the listing above.
Target	log2 fold change
UniProt Q9Z329 (peptide sequence: HLATGNYLAAELNPDYR, peptide start residue: 307)	0.292
UniProt Q9Z1D1 (peptide sequence: EVINGNIK, peptide start residue: 58)	-0.217
